Earlier results as cited in patent US10632124B2, “Adrenoceptors antagonists for the prevention and treatment of neurodegenerative conditions” (Cedars-Sinai Medical Center, priority 2013, dated 2020).
At least one compound was matched to its structure with a doubt left.

Conditions: cited from earlier work

Q: With `COc1ccccc1OCCNCC(O)COc1c(O)ccc2[nH]c3ccccc3c12` (stereo not shown) [SB209995] as the compound, how does the “antioxidant activity, potency relative to vitamin E” value read?
A: 1000 fold
